Measurements from PubChem BioAssay AID1508600 (Functional Genomics Laboratory (NCATS/FGL), 2020).
In all, about 53,000 sequences went through this assay and about 3,700 (7%) were called active.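 Rule for the calls: active = gene knockdowns whose robust z-score for IL-1 alpha signal is at least 2 or at most -2, so actives lie on both sides; inactive = the rest.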 Some of the results follow.

Assay: Components of the Cytosolic LPS Sensing Pathway: Gene Identification via Genome-wide siRNA Screen;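 note: robust z of the log signal after scaling to non-targeting control siRNA wells of the plate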
Conditions: RAW264.7 macrophages, IL-1a HTRF, actives lie on both sides, screened at 100 nM (by protocol), cells primed 5 h with Pam3CSK4 first
Summary of the method: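 IL-1a HTRF of supernatants after 24 hour LipidA transfection of Pam3CSK4-primed (5 hours) RAW264.7 cells, 48h post-siRNA transfection (100 nM). Scores: percent of plate negative-control median, then log-based robust z-score.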

| Sequence | z-score |
| --- | --- |
| GGUGUAGAAUCUCAAUCCATT against Samd12 | inactive: 0.91 |
| GCAUUACUUGAGCAAAACATT against Zfp654 | inactive: -0.854 |
| CGACUUGACUGGUCUUAAATT against Cdk8 | inactive: -0.289 |
| GCAUCACGUAUGUGAUUUGTT against Dmrtc1a | inactive: -0.569 |
| GCUUGGUGGGUUUGUUGAUTT against Slc28a1 | inactive: -0.113 |
| CAUGAACGUGGGUAAAACGTT against Rab20 | inactive: -0.878 |
| GCCAUUGUCACAGUCUGAATT against Phf21a | inactive: 0.627 |
| GGAUCUCCCUCUAAAUAUUTT against Hsp90aa1 | inactive: -0.138 |
| CCAUAUUCGAGAUACUCUGTT against Dnm3 | inactive: -0.53 |
| GCGAGAGUCACAAAGUGCATT against Rcc1l | inactive: 1.35 |
| GGAGGUCAAUGACUUCGCATT against Trip10 | inactive: 0.0947 |
| GGGUAUAAUCCACAUCCAATT against Tyms | inactive: 1.46 |
| GGUGACCCAGUUGCUGAAUTT against Ahnak | inactive: 1.02 |
| GGCAGCAUGAUUAUUUCAATT against Gm4861 | inactive: -0.0747 |
| CCCUGAUUCCAAGUCAUCATT against Lect2 | inactive: -0.617 |
| GCCCUUGACUUCAAUACCCTT against Shc1 | inactive: 0.913 |
| GGAAAACGAGUCAAACUCATT against Lnx2 | active: 3.4 |
| CGGACUCAUUCAGCAACCUTT against Ttc39a | inactive: -1.19 |
| GCGUGCAUAUAUCCAAUGCTT against Tardbp | inactive: 1.36 |
| CCUUGAGUGAAAGAAUUGATT against Tmprss11d | inactive: -0.609 |
| GCGAUACCGUUCUCUGUACTT against Lexm | inactive: -0.749 |
| GGCUUGAGCUGGGAUACAATT against Hnrnpdl | inactive: 1 |
| GGAGAUAGGAUUGCUUGCATT against Mthfd1l | active: -2.3 |

| Sequence | z-score |
| --- | --- |
| GGUCACAGUUGACAAAUGGTT against Cdc16 | inactive: -0.282 |
| GCAUCAAAAUCGGUUUCUGTT against Lkaaear1 | inactive: 0.759 |
| GCUGUAUGCCUGUUUAGUGTT against Prr15 | inactive: -0.807 |
| GCUUGGUGUUAAUUUGUUGTT against Btf3l4 | inactive: 0.549 |
| GGAAAAUUGGACCAAUUUCTT against Ric3 | inactive: -0.339 |
| GCCUGCAUUGCAAAUGAAATT against Krtap13-1 | inactive: -0.257 |
| GCAGACUCUGUAUACCAUGTT against Rfx4 | inactive: 0.21 |
| GGGCAUUCAAAGAUGACUATT against Mrpl39 | inactive: 1.22 |
| GCAUGUCAUACCAGCUAGUTT against Nkd2 | inactive: -1.5 |
| GGCAGUUGAUUCCUUUAAATT against Baz1a | inactive: 0.0425 |
| CCUAGUUAUCAGAAGAAAATT against Pax7 | inactive: 0.738 |
| GGAACAGCAAAUGUUCUUUTT against Rab38 | inactive: 1.16 |
| GGAAAACAACGAAUUGCUCTT against Uri1 | inactive: 0.791 |
| CCCAACCAGACCAAUCCACTT against Enam | inactive: -0.893 |
| CCGUAUCAACCUCAUCUAUTT against Mob3c | inactive: -0.00254 |
| GGAACAGGAAUAUGAAAGATT against Olfr836 | inactive: -0.903 |
| CCCUUUAUAAGGAAAUGUGTT against Ces2b | inactive: -0.728 |
| GGUUACUCCUUUUUAUGUATT against Bex1 | inactive: -1.1 |
| GGAGCUACUGAGAACAUAATT against Hoxd4 | inactive: -1.25 |
| GGAAACCAAUAGGAAGUAUTT against Ubqln1 | inactive: -0.659 |
| GGGCUCUUUCUACCAAUGUTT against Calhm6 | inactive: 1.23 |
| GGCCUGUUUUGAAGUAGAATT against B630019K06Rik | inactive: 0.352 |
| CGAUAGCGAAUUUACAGUUTT against Prdx6 | inactive: 1.89 |

A different layout for part of the listing above:
Sequence | z-score
GGAAAACAACGAAUUGCUCTT against Uri1 | inactive: 0.791
CCCAACCAGACCAAUCCACTT against Enam | inactive: -0.893
CCGUAUCAACCUCAUCUAUTT against Mob3c | inactive: -0.00254
GGAACAGGAAUAUGAAAGATT against Olfr836 | inactive: -0.903

Remaining list, next part.

| Sequence | z-score |
| --- | --- |
| CCAGAUAUCUGGGUACUUUTT against Zfp353-ps | inactive: -1.85 |
| GGGACUUACAAGCAGAUUCTT against Casp9 | inactive: -0.399 |
| GCUCACAAAGCAAAGACAATT against 3110009E18Rik | inactive: 0.636 |
| GGAAAAGACAGUCUCUGAATT against Ubxn11 | inactive: -0.00536 |
| GGAGAGCUAGCCUUAAUAATT against Bspry | active: 4.21 |
| GCUCAGCUACAAUAUGUUCTT against BC051019 | inactive: 0.14 |
| GACCUUCGACACCGACAAATT against Rtl8c | active: 3.29 |
| GGAAAACAACAUGAUCGUGTT against Nadk | inactive: -0.137 |
| GGAUGUACCCUACUUGCUATT against B3gnt8 | inactive: 0.774 |
| CCUGAAGAUUUUAUGGACGTT against Gpatch1 | inactive: 0.523 |
| CGGACUCUGUGUUCUUAGATT against Alg3 | active: 2.68 |
| GCUCUAUCACUCGUUGAAGTT against Trim27 | inactive: 0.542 |
| GCUCAUUGCCAAGAUGACATT against Tcea3 | inactive: -0.801 |
| GGUGCCCACCAAUCAACAUTT against Slc9a3r1 | inactive: -0.667 |
| GGCCAUCUCUUCUACUGUATT against Glt28d2 | inactive: 0.0935 |
| GGACAAUGUUGAAUCCUGUTT against Rrp15 | inactive: -0.155 |
| GGCUGUUUUUACACUUCGCTT against Olfr1395 | inactive: -0.0372 |
| GGGUCAUAAAGGAUUUCAUTT against Ppih | inactive: 0.704 |
| GGAGCUUCAGCAUGAAAACTT against Ulk2 | inactive: 0.918 |
| CCAUUUGGGACUAUAGACGTT against Celf3 | inactive: -0.0104 |
| GCAAGACUGACCUAGAUUATT against Rasal2 | inactive: -1.48 |
| GCAGAGAUCCCUUCUACAATT against Rnf32 | inactive: 0.741 |
